PubChem BioAssay AID1259254 | NCATS, 2017
Assay: 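Finding genes that stop cells copying their DNA twice in one cycle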 (primary screen). Cell system: human HCT116 colorectal cancer cells. Reagent: single siRNA against human genes. Duration: 3 days. Detection: 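Imaged Hoechst DNA stain sorts each cell into a cycle phase by DNA amount; per plate, G2 fraction set to 0% for non-targeting and 100% for GMNN siRNA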. Direction: G2 robust z-score: higher = more G2 cells, more excess DNA replication. Active means: 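Active siRNAs have a G2 robust z of 5 or more median absolute deviations over the median, which in these data means about 38% or higher of GMNN control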.
Shown is a random part of about 59,000 reagents. Over the whole deposit, about 1,550 (2.6%) were called active. 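G2 share is only a proxy for re-replication; each gene was hit by three separate siRNAs, and active genes were retested.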 The numbers tell different reagents against one gene apart. Not all columns of the deposit are shown. Not stated in the record: the amount of reagent.

DDX19B (DEAD-box helicase 19B) #1 → G2 robust z-score = 2.72; outcome = inactive
DDX19B (DEAD-box helicase 19B) #2 → G2 robust z-score = 1.25; outcome = inactive
DDX19B (DEAD-box helicase 19B) #3 → G2 robust z-score = 5.7; outcome = active
CHCHD2P6 #1 → G2 robust z-score = -0.568; outcome = inactive
CHCHD2P6 #2 → G2 robust z-score = -0.777; outcome = inactive
CHCHD2P6 #3 → G2 robust z-score = 0.0413; outcome = inactive
SF3A2P1 (SF3A2 pseudogene 1) #1 → G2 robust z-score = -0.495; outcome = inactive
SF3A2P1 (SF3A2 pseudogene 1) #2 → G2 robust z-score = 0.0602; outcome = inactive
SF3A2P1 (SF3A2 pseudogene 1) #3 → G2 robust z-score = 0.219; outcome = inactive
HOXB13 (homeobox B13) #1 → G2 robust z-score = -0.601; outcome = inactive
HOXB13 (homeobox B13) #2 → G2 robust z-score = -1.1; outcome = inactive
HOXB13 (homeobox B13) #3 → G2 robust z-score = -0.635; outcome = inactive
ZDHHC19 (zDHHC palmitoyltransferase 19) #1 → G2 robust z-score = -0.451; outcome = inactive
ZDHHC19 (zDHHC palmitoyltransferase 19) #2 → G2 robust z-score = 0.192; outcome = inactive
ZDHHC19 (zDHHC palmitoyltransferase 19) #3 → G2 robust z-score = -0.253; outcome = inactive
ACO2P1 (ACO2 pseudogene 1) #1 → G2 robust z-score = -0.947; outcome = inactive
ACO2P1 (ACO2 pseudogene 1) #2 → G2 robust z-score = -0.522; outcome = inactive
ACO2P1 (ACO2 pseudogene 1) #3 → G2 robust z-score = -0.0455; outcome = inactive
CIMIP1 (ciliary microtubule inner protein 1) #1 → G2 robust z-score = 2.24; outcome = inactive
CIMIP1 (ciliary microtubule inner protein 1) #2 → G2 robust z-score = -0.866; outcome = inactive
CIMIP1 (ciliary microtubule inner protein 1) #3 → G2 robust z-score = -0.212; outcome = inactive
PPIAP72 (peptidylprolyl isomerase A pseudogene 72) #1 → G2 robust z-score = -0.565; outcome = inactive
PPIAP72 (peptidylprolyl isomerase A pseudogene 72) #2 → G2 robust z-score = -0.839; outcome = inactive
PPIAP72 (peptidylprolyl isomerase A pseudogene 72) #3 → G2 robust z-score = -0.395; outcome = inactive
